In the supplement of paper PMC10849652:
The list shows a part of the results.

Amino acid sequences for entries named in this document (tags omitted). A change or cut given only in a name is not applied to a line headed by its entry.
UniProt Q8NG68: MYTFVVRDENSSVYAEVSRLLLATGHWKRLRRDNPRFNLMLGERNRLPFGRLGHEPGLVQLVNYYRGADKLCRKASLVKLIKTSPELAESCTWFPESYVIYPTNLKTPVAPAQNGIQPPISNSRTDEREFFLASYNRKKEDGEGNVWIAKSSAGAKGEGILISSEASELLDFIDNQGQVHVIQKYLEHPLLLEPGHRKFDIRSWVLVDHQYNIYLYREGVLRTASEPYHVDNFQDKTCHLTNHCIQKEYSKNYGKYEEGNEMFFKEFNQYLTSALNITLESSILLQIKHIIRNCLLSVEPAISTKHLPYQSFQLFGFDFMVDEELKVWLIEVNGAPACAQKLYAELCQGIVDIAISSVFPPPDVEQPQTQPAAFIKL
UniProt Q9H832: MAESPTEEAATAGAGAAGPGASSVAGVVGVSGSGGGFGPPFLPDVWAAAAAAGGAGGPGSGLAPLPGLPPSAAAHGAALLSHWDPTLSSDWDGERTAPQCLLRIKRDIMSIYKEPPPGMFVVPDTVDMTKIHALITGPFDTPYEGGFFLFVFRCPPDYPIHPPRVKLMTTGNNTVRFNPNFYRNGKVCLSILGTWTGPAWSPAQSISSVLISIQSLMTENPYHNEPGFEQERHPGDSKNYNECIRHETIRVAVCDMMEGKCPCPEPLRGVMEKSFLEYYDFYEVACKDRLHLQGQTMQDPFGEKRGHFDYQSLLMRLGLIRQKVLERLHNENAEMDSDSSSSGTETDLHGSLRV
UniProt P0DPH7, whole entry, looked up: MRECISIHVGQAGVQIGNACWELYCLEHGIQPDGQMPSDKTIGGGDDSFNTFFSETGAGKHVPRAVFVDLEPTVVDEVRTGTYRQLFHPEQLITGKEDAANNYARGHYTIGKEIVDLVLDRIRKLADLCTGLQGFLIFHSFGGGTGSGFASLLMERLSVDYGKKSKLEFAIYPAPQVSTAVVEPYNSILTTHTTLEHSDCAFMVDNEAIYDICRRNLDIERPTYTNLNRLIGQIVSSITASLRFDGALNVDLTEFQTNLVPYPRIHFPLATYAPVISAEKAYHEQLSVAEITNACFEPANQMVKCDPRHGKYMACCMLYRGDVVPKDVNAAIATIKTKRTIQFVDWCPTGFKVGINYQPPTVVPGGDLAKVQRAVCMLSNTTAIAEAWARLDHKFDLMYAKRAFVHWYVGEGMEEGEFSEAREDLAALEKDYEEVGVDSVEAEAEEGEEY
UniProt Q13885, whole entry, looked up: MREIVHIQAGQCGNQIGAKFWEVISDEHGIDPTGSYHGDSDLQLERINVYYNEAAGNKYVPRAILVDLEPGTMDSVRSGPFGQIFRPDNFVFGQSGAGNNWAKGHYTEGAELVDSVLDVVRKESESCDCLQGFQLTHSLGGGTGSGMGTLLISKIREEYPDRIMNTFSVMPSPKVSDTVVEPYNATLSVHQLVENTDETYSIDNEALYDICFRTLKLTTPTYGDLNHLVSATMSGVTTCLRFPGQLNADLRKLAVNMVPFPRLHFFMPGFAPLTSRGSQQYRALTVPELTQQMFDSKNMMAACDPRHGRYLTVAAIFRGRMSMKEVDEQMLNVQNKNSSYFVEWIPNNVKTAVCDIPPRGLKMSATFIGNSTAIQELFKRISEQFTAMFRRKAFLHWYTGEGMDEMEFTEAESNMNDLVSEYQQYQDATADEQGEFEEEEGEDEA
UniProt Q9NNW7, whole entry, looked up: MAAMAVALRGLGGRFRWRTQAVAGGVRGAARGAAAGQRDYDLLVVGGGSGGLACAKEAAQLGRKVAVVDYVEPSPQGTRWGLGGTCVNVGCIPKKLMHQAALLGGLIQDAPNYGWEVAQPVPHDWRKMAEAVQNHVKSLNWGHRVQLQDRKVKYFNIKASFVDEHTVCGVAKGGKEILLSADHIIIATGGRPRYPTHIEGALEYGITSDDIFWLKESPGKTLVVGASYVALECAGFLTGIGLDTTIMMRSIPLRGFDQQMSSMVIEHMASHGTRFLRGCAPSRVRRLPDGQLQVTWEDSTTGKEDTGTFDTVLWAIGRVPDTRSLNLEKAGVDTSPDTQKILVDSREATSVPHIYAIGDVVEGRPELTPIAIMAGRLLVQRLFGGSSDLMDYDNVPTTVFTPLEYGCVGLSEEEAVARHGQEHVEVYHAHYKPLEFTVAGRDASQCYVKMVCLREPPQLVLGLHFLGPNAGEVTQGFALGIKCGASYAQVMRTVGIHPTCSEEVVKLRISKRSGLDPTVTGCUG
UniProt Q969M7: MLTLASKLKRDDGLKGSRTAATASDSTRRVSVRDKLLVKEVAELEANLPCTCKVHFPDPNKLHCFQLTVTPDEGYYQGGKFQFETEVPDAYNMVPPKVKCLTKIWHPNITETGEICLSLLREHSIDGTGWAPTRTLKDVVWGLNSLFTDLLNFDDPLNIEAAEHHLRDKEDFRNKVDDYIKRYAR
UniProt Q969E8: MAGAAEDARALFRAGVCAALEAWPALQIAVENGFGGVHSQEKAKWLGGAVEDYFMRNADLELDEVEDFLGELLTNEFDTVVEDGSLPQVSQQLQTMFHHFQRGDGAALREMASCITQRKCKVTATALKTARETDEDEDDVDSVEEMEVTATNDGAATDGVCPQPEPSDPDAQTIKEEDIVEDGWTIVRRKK
UniProt Q9NZ09: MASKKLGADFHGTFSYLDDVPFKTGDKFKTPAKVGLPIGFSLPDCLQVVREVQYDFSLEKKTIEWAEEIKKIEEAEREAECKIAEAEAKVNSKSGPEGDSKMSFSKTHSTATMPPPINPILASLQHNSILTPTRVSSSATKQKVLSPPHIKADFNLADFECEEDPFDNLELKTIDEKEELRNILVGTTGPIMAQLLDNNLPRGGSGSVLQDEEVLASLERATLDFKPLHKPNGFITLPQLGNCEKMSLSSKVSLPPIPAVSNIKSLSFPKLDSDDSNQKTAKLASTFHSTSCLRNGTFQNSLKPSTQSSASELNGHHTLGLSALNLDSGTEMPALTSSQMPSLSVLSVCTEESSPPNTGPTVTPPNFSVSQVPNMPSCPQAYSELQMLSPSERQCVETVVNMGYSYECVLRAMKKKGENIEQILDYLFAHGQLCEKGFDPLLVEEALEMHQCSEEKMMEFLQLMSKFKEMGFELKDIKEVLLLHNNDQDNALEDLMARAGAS
UniProt Q13630: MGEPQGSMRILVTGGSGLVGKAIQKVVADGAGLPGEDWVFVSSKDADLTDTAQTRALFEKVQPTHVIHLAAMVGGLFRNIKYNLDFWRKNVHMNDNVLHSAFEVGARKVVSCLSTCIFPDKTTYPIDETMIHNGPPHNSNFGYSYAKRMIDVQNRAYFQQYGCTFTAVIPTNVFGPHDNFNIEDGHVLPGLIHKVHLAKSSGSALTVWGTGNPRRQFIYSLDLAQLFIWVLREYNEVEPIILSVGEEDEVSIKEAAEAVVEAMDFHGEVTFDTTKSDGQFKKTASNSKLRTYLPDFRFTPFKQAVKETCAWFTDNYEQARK
UniProt P68371, whole entry, looked up: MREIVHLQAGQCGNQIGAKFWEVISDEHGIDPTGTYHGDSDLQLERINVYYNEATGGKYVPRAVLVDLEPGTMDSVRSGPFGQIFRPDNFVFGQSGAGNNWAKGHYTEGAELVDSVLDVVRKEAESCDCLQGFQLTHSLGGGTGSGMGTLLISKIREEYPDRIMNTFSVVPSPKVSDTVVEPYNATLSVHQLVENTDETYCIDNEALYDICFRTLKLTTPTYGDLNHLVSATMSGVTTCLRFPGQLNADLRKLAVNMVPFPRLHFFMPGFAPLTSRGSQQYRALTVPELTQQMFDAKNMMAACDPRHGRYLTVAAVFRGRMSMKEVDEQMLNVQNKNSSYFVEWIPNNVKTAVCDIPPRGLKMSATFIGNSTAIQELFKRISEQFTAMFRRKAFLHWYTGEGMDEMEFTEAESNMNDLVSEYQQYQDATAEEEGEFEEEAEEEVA
UniProt Q99816: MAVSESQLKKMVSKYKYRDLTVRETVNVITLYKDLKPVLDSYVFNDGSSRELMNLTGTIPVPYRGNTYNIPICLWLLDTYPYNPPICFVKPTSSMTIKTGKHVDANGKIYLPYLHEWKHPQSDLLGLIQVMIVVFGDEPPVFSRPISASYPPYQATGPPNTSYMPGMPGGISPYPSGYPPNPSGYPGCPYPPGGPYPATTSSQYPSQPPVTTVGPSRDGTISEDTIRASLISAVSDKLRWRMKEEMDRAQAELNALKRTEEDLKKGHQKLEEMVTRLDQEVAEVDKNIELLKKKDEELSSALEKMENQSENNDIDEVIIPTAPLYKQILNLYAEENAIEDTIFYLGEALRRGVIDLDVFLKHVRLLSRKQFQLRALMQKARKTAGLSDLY
UniProt P43897: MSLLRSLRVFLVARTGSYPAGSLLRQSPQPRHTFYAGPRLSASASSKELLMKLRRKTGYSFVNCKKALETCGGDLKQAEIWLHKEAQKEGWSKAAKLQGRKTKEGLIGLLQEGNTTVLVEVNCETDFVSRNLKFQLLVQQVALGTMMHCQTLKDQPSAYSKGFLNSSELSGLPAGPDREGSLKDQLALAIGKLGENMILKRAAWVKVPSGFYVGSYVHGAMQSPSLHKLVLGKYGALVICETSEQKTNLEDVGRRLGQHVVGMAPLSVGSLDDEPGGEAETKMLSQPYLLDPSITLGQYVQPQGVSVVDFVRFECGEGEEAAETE
UniProt Q9UJT0: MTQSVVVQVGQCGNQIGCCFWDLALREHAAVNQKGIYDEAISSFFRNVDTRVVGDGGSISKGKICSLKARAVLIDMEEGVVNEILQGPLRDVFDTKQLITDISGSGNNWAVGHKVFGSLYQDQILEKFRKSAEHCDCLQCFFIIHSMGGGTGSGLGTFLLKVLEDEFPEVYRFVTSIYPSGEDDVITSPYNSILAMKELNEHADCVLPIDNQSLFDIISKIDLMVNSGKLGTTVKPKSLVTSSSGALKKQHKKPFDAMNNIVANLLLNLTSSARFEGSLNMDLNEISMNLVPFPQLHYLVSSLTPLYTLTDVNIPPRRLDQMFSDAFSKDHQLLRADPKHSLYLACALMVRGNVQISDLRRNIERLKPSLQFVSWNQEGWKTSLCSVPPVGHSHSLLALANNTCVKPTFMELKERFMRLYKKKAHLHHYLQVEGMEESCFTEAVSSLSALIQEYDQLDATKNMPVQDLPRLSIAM
UniProt P23258, whole entry, looked up: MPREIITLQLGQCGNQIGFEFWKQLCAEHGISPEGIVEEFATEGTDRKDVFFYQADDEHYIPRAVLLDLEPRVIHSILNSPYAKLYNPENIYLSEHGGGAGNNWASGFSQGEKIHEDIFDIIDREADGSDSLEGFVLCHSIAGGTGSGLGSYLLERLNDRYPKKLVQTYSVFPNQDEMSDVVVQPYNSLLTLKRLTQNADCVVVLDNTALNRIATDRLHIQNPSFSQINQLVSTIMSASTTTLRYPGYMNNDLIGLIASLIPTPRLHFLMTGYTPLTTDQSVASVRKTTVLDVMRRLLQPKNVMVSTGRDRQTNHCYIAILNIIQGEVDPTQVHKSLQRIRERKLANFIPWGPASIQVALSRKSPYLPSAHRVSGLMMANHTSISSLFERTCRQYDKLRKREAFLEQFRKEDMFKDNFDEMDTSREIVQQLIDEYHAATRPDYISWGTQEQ

Key:
Assay in all cases: log2 fold change, soluble protein after heating vs DMSO (PISA); higher = thermal stabilisation; K562 cells, 10 uM, 30 min; active = over 0.2 and 3.5 SD of the protein, either way, in both replicates (recomputed)
bafetinib = compound: Cc1ccc(NC(=O)c2ccc(CN3CC[C@H](N(C)C)C3)c(C(F)(F)F)c2)cc1Nc1nccc(-c2cncnc2)n1 [bafetinib]
Procedure, shortened: (§1)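 Soluble protein was defined as the supernatant after 21,000xg for 90 min. It came from K562 cells at 2×10^6 cells/mL given 10 μM compound for 30 min, heated in aliquots for 3 min across 48°C-58°C, pooled, and extracted in PBS with 0.5% NP-40 at 4°C, and was quantified by TMTpro 16plex LC-MS/MS with equalised channel sums. Thermal stability against control samples, from duplicates, is reported as log2 fold change.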

[1] = compound: Cc1cccc(CC(=O)N2CCc3c2ccc(-c2cn(C)c4ncnc(N)c24)c3F)n1
Procedure, shortened: as §1

nilotinib = compound: Cc1cn(-c2cc(NC(=O)c3ccc(C)c(Nc4nccc(-c5cccnc5)n4)c3)cc(C(F)(F)F)c2)cn1 [nilotinib]
Procedure, shortened: as §1

[2] = compound: Cc1nc(Nc2n[nH]c3c2CN(C(=O)N[C@H](CN(C)C)c2ccccc2)C3(C)C)c2sccc2n1
Procedure, shortened: as §1

dasatinib = compound: Cc1nc(Nc2ncc(C(=O)Nc3c(C)cccc3Cl)s2)cc(N2CCN(CCO)CC2)n1 [dasatinib]
Procedure, shortened: as §1

[3] = compound: Cc1ncc(-c2ccnc(Nc3ccc(S(C)(=O)=O)cc3)n2)n1C(C)C
Procedure, shortened: as §1

[4] = compound: Cn1cc(-c2ccc3c(c2)CCN3C(=O)Cc2cccc(C(F)(F)F)c2)c2c(N)ncnc21
Procedure, shortened: as §1

[5] = compound: Cn1cc(-c2ccc3nnc(C(F)(F)c4ccc5ncccc5c4)n3n2)cn1
Procedure, shortened: as §1

tipifarnib = compound: Cn1cncc1[C@@](N)(c1ccc(Cl)cc1)c1ccc2c(c1)c(-c1cccc(Cl)c1)cc(=O)n2C [tipifarnib]
Procedure, shortened: as §1

mubritinib = compound: FC(F)(F)c1ccc(/C=C/c2nc(COc3ccc(CCCCn4ccnn4)cc3)co2)cc1 [mubritinib]
Procedure, shortened: as §1

[6] = compound: NC(=O)Nc1cc(-c2cccc(F)c2)sc1C(=O)N[C@H]1CCCNC1
Procedure, shortened: as §1

[7] = compound: NC(=O)c1cnc(N[C@@H]2CCCC[C@@H]2N)nc1Nc1cccc(-n2nccn2)c1
Procedure, shortened: as §1

[8] = compound: NC1(c2ccc(-c3nc4ccn5c(=O)[nH]nc5c4cc3-c3ccccc3)cc2)CCC1
Procedure, shortened: as §1

[9] = compound: NCC(=O)Nc1ccc(-n2nc(C(F)(F)F)cc2-c2ccc3c(ccc4ccccc43)c2)cc1
Procedure, shortened: as §1

entinostat = compound: Nc1ccccc1NC(=O)c1ccc(CNC(=O)OCc2cccnc2)cc1 [entinostat]
Procedure, shortened: as §1

vorinostat = compound: O=C(CCCCCCC(=O)Nc1ccccc1)NO [vorinostat]
Procedure, shortened: as §1

citarinostat = compound: O=C(CCCCCCNC(=O)c1cnc(N(c2ccccc2)c2ccccc2Cl)nc1)NO [citarinostat]
Procedure, shortened: as §1

silmitasertib = compound: O=C(O)c1ccc2c(c1)nc(Nc1cccc(Cl)c1)c1ccncc12 [silmitasertib]
Procedure, shortened: as §1

[10] = compound: O=C1NC(=O)C(c2cnc3ccccn23)=C1c1cn2c3c(cc(F)cc13)CN(C(=O)N1CCCCC1)CC2
Procedure, shortened: as §1

[11] = compound: c1cc(OCCN2CCCCC2)cc(-c2n[nH]c3ccc(-c4nnc[nH]4)cc23)c1
Procedure, shortened: as §1

Measured: log2 fold change

TTL (UniProt Q8NG68)
inactive: bafetinib -0.043 | [1] 0.033 | nilotinib 0.085 | [2] -0.029 | dasatinib -0.057 | [3] -0.034 | [4] 0.127 | [5] 0.009 | tipifarnib -0.029 | mubritinib 0.033 | [6] -0.011 | [7] 0.01 | [8] -0.048 | [9] 0.064 | entinostat -0.002 | vorinostat 0.025 | citarinostat -0.042 | silmitasertib 0.064 | [10] 0.021 | [11] 0.095

UBE2Z (UniProt Q9H832)
inactive: bafetinib -0.054 | [1] 0.055 | nilotinib 0.031 | [2] -0.005 | dasatinib -0.026 | [3] 0.004 | [4] 0.019 | [5] 0.009 | tipifarnib -0.036 | mubritinib 0.023 | [6] 0.003 | [7] -0.028 | [8] -0.062 | [9] -0.01 | entinostat -0.006 | vorinostat 0 | citarinostat 0.036 | silmitasertib 0.008 | [10] -0.035 | [11] -0.001

TUBA3C (UniProt P0DPH7)
inactive: bafetinib 0.006 | [1] 0.025 | nilotinib -0.001 | [2] 0.09 | dasatinib -0.063 | [3] -0.06 | [4] 0.053 | [5] 0.004 | tipifarnib 0.006 | mubritinib 0.03 | [6] -0.01 | [7] 0.035 | [8] -0.068 | [9] -0.003 | entinostat -0.02 | vorinostat 0.014 | citarinostat 0.157 | silmitasertib -0.006 | [10] -0.037 | [11] -0.073

TUBB2A (UniProt Q13885)
inactive: bafetinib -0.002 | [1] 0.003 | nilotinib 0 | [2] 0.013 | dasatinib -0.015 | [3] -0.03 | [4] -0.006 | [5] 0 | tipifarnib -0.006 | mubritinib 0.016 | [6] -0.012 | [7] 0.03 | [8] 0.01 | [9] 0.024 | entinostat -0.005 | vorinostat 0.013 | citarinostat -0.019 | silmitasertib -0.05 | [10] -0.018 | [11] -0.016

UBA6
inactive: bafetinib 0.009 | [1] 0.036 | nilotinib 0.062 | [2] -0.137 | dasatinib -0.035 | [3] -0.024 | [4] 0.016 | [5] -0.024 | tipifarnib -0.075 | [6] -0.048 | [7] -0.065 | [8] -0.14 | [9] -0.047 | entinostat 0.05 | vorinostat 0.011 | citarinostat 0.052 | silmitasertib -0.004 | [10] -0.046 | [11] -0.004
active: mubritinib 0.228

TXNRD2 (UniProt Q9NNW7)
inactive: bafetinib -0.026 | [1] -0.013 | nilotinib 0.1 | [2] -0.039 | dasatinib 0.013 | [3] 0.015 | [4] -0.024 | [5] 0.014 | tipifarnib 0.015 | mubritinib -0.128 | [6] 0.034 | [7] -0.005 | [8] 0.002 | [9] -0.032 | entinostat 0.009 | vorinostat 0.011 | citarinostat 0.125 | silmitasertib 0.033 | [10] 0.04 | [11] -0.01

UBE2F isoform 2 (UniProt Q969M7)
inactive: bafetinib 0 | [1] -0.046 | nilotinib 0.035 | [2] -0.004 | dasatinib -0.083 | [3] -0.022 | [4] 0.042 | [5] 0.02 | tipifarnib -0.064 | mubritinib -0.026 | [6] -0.01 | [7] -0.037 | [8] -0.006 | [9] 0.016 | entinostat 0.015 | vorinostat 0.095 | citarinostat 0.04 | silmitasertib 0.003 | [10] 0.003 | [11] 0.025

Pulled one by one from above, 2 records:
TUBA3C (UniProt P0DPH7)
inactive: bafetinib 0.006 | [1] 0.025 | nilotinib -0.001 | [2] 0.09 | dasatinib -0.063 | [3] -0.06 | [4] 0.053 | [5] 0.004 | tipifarnib 0.006 | mubritinib 0.03 | [6] -0.01 | [7] 0.035 | [8] -0.068 | [9] -0.003 | entinostat -0.02 | vorinostat 0.014 | citarinostat 0.157 | silmitasertib -0.006 | [10] -0.037 | [11] -0.073

UBA6
inactive: bafetinib 0.009 | [1] 0.036 | nilotinib 0.062 | [2] -0.137 | dasatinib -0.035 | [3] -0.024 | [4] 0.016 | [5] -0.024 | tipifarnib -0.075 | [6] -0.048 | [7] -0.065 | [8] -0.14 | [9] -0.047 | entinostat 0.05 | vorinostat 0.011 | citarinostat 0.052 | silmitasertib -0.004 | [10] -0.046 | [11] -0.004
active: mubritinib 0.228

(further entries)

TSR2 (UniProt Q969E8)
inactive: bafetinib 0.044 | [1] -0.064 | nilotinib 0.028 | [2] -0.038 | dasatinib -0.056 | [3] -0.045 | [4] 0.045 | [5] -0.078 | tipifarnib -0.022 | mubritinib 0.006 | [6] -0.221 | [7] 0.047 | [8] -0.042 | [9] 0.148 | entinostat -0.047 | vorinostat -0.158 | citarinostat 0.105 | silmitasertib -0.005 | [10] -0.115 | [11] 0.15

UBAP1 isoform 4 (UniProt Q9NZ09)
inactive: bafetinib -0.026 | [1] -0.022 | nilotinib -0.082 | [2] -0.15 | dasatinib -0.086 | [3] 0.009 | [4] 0.015 | [5] -0.015 | tipifarnib -0.131 | mubritinib 0.084 | [6] -0.035 | [7] -0.005 | [8] -0.052 | [9] 0.002 | entinostat -0.027 | vorinostat -0.019 | citarinostat 0.193 | silmitasertib 0.064 | [10] -0.032 | [11] -0.049

TSTA3 (UniProt Q13630)
inactive: bafetinib -0.041 | [1] -0.02 | nilotinib -0.011 | [2] 0.023 | dasatinib 0.044 | [3] -0.007 | [4] 0.036 | [5] 0.031 | tipifarnib 0.018 | mubritinib 0.014 | [6] 0.027 | [7] 0.022 | [8] 0.014 | [9] 0.005 | entinostat -0.031 | vorinostat -0.043 | citarinostat -0.014 | silmitasertib 0.008 | [10] -0.057 | [11] -0.021

TUBB4B (UniProt P68371)
inactive: bafetinib 0.002 | [1] -0.008 | nilotinib 0.028 | [2] 0.012 | dasatinib -0.05 | [3] -0.003 | [4] 0.07 | [5] 0.011 | tipifarnib -0.055 | mubritinib 0.009 | [6] 0.041 | [7] 0.041 | [8] -0.035 | [9] 0.039 | entinostat -0.026 | vorinostat 0.012 | citarinostat 0.021 | silmitasertib -0.039 | [10] 0.017 | [11] -0.015

TSG101 (UniProt Q99816)
inactive: bafetinib -0.096 | [1] -0.034 | nilotinib -0.014 | [2] -0.081 | dasatinib -0.092 | [3] -0.007 | [4] 0.033 | [5] -0.024 | tipifarnib -0.033 | mubritinib 0.052 | [6] -0.02 | [7] -0.082 | [8] -0.157 | [9] -0.033 | entinostat 0.038 | vorinostat -0.007 | citarinostat 0.053 | silmitasertib 0.025 | [10] -0.103 | [11] 0.025

TTC27 (UniProt Q6P3X3)
inactive: bafetinib 0.077 | [1] 0.123 | nilotinib -0.089 | [2] -0.162 | dasatinib -0.09 | [3] 0.054 | [4] -0.105 | [5] -0.129 | tipifarnib -0.052 | mubritinib -0.082 | [6] -0.026 | [7] -0.045 | [8] -0.108 | [9] -0.02 | entinostat 0 | vorinostat 0.147 | citarinostat 0.065 | silmitasertib 0.169 | [10] 0.155 | [11] -0.12

TSFM (UniProt P43897)
active: mubritinib -0.36
inactive: bafetinib 0.091 | [1] -0.087 | nilotinib 0.062 | [2] -0.217 | dasatinib -0.143 | [3] 0.039 | [4] 0.033 | [5] 0.033 | tipifarnib 0.013 | [6] -0.068 | [7] 0.03 | [8] -0.05 | [9] -0.076 | entinostat 0.162 | vorinostat 0.016 | citarinostat 0.181 | silmitasertib 0.11 | [10] -0.043 | [11] 0

TUBE1 (UniProt Q9UJT0)
inactive: bafetinib 0.017 | [1] -0.069 | nilotinib 0.097 | [2] -0.07 | dasatinib 0.022 | [3] -0.012 | [4] 0.019 | [5] -0.08 | tipifarnib 0.025 | mubritinib 0.012 | [6] 0.043 | [7] 0.024 | [8] 0.006 | [9] -0.004 | entinostat 0.012 | vorinostat -0.045 | citarinostat -0.008 | silmitasertib 0.009 | [10] 0.057 | [11] -0.04

TUBG1 (UniProt P23258)
inactive: bafetinib -0.012 | [1] -0.022 | nilotinib -0.025 | [2] -0.048 | dasatinib 0.008 | [3] -0.025 | [4] 0.036 | [5] -0.062 | tipifarnib 0.047 | mubritinib 0.024 | [6] -0.014 | [7] 0.014 | [8] 0.009 | [9] 0.035 | entinostat -0.01 | vorinostat 0 | citarinostat -0.053 | silmitasertib -0.013 | [10] 0.032 | [11] -0.06
